Laboratory results as given in PubChem BioAssay AID540276 (National Center for Advancing Translational Sciences (NCATS), 2011).
Among all 300,000 compounds or so, about 5,400 (1.8%) were called active. Inconclusive results, whose numbers are uncertain, are shown with a selection of clear calls. Calls follow the shape of the full dose curve; tested in HEK293 cells. A potency beside an inconclusive call is a rough fit, not a confirmed value.

Assay: qHTS for inhibitors of binding or entry into cells for Marburg Virus
Conditions: Marburg virus pseudotyped entry inhibition, cell reporter; series mostly up to 37.8 µM
Potency is read from the fitted curve at half-maximal effect.

| SMILES | Potency |
| --- | --- |
| Cc1csc(NC(=O)Nc2cccc(Cl)c2)n1 | inconclusive: 23.1 µM [activator, single point] |
| CC(=O)Nc1n[nH]c(=S)s1 | inconclusive: 0.794 µM [activator, full curve, poor fit] |
| CC(C)(C)c1ccc2c(c1)C(=O)c1ccccc1C2=O | inconclusive: 0.562 µM [activator, full curve, poor fit] |
| COc1cccc(NC(=O)CN(C)C(=O)c2cn(-c3ccccc3)nc2-c2cccs2)c1 | inconclusive: 17.8 µM [inhibitor, partial curve, poor fit] |
| CC(C)CO/N=C1\C[C@@H](O)[C@@H](O)[C@@H]2[C@@H]3C(=O)N(Cc4ccc5c(c4)OCO5)C(=O)[C@@H]3CC[C@@H]12 | inconclusive: 0.841 µM [activator, full curve, poor fit] |
| Cc1nnc(NC(=O)c2cc(S(=O)(=O)N3CCCCC3)ccc2Cl)s1 | inactive |
| Cn1nc(-c2ccccc2)c(CO)c1Oc1cccc(C(F)(F)F)c1 | inactive |
| Cc1ccc(Nc2cc(C)nc(-c3ccccc3O)n2)cc1 | inconclusive: 29.1 µM [inhibitor, single point] |
| COc1ccc(/C=N/NC(=O)C(O)(c2ccccc2)c2ccccc2)cc1OC | inactive |
| Cc1ccc2nc(/C(C#N)=C\c3cc(O)ccc3[N+](=O)[O-])[nH]c2c1 | inactive |
| O=C(COC(=O)c1ccc(F)c(S(=O)(=O)N2CCOCC2)c1)NCc1ccccc1 | inconclusive: 1 µM [inhibitor, single point] |
| O=C(Nc1ccncc1)c1ccccc1F | inactive |
| Nc1[nH]c(N=NC(=O)c2ccccc2O)c2ccccc12 | inconclusive: 12.6 µM [inhibitor, single point] |
| CC1CCCN(C(=O)N2c3ccccc3Sc3ccccc32)C1 (stereo not given) | inconclusive: 29.1 µM [inhibitor, single point] |
| Nc1ccccc1-c1ccn[nH]1 | inconclusive: 5.62 µM [activator, single point] |
| CCOCc1c(C(=O)N2CCN(CCOc3ccc(Cl)cc3)CC2)oc2ccccc12 | inconclusive: 35.5 µM [inhibitor, single point] |
| Cc1cc(/C=C2\SC(=S)NC2=O)c(C)n1-c1ccccc1 | inconclusive: 31.6 µM [inhibitor, single point] |
| COc1cccc(NC(=O)C2C3C=CC4(O3)C2C(=O)N(CCN2CCCCC2)C4C(=O)NC2CCCCC2C)c1 (stereo not given) | inactive |
| N/C(Cc1cccs1)=N\OC(=O)COc1ccccc1Cl | inconclusive: 12.6 µM [activator, partial curve] |
| CCN(CC)S(=O)(=O)c1ccc(C(=O)OCC(=O)Nc2sc3c(c2C#N)CCCCC3)cc1 | inconclusive: 12.6 µM [activator, partial curve, poor fit] |
| O=C(NC(=S)Nc1ccc(N2CCN(C(=O)c3ccccc3)CC2)cc1)c1cccs1 | inconclusive: 14.1 µM [inhibitor, partial curve, poor fit] |
| CCN(CC)CCNC(=O)c1ccc(NC(=O)c2ccc(F)cc2F)cc1 | inconclusive: 7.08 µM [inhibitor, partial curve, poor fit] |
| CCCCCNC(=O)c1cccc(S(=O)(=O)N2CC3(C)CC2CC(C)(C)C3)c1 (stereo not given) | inconclusive: 1.26 µM [inhibitor, single point] |

Single entries from the results shown.
COc1ccc(/C=N/NC(=O)C(O)(c2ccccc2)c2ccccc2)cc1OC | Potency: inactive
CC(=O)Nc1n[nH]c(=S)s1 | Potency: inconclusive: 0.794 µM [activator, full curve, poor fit]

(listing goes on)

| SMILES | Potency |
| --- | --- |
| Cc1ccc(NC(=O)Cn2cc(C(=O)c3cccs3)c3ccccc32)cc1C | active: 11.2 µM |
| Cc1ccc(C(=O)c2cn(Cc3cccc(F)c3)c3nc(C)ccc3c2=O)cc1 | inconclusive: 2 µM [inhibitor, partial curve, poor fit] |
| O=C(Cc1nc2ccccc2[nH]1)N/N=C/c1ccccc1 | inactive |
| O=C(CCSCc1cnn(-c2ccccc2)c1-n1cccc1)NCc1ccc(Cl)cc1 | inactive |
| CN(C)c1ccc(C(=O)Nc2nc3c(s2)CCCC3)cc1 | inconclusive: 10.3 µM [inhibitor, partial curve, poor fit] |
| Cc1ccc(NC(=O)c2ccc(S(=O)(=O)Nc3c(C)n(C)n(-c4ccccc4)c3=O)cc2)nc1 | inconclusive: 0.501 µM [activator, full curve, poor fit] |
| Cc1ccc(-n2c(=O)c3c(cnn3C)n(CC(=O)Nc3cc(C)ccc3C)c2=O)cc1 | inactive |
| CC(C)c1ccc2c(c1)C(N1CCN(C)CC1)Cc1cccnc1S2 (stereo not given) | active: 11.2 µM |
| CCOC(=O)c1ccc(NC(=O)CNC(=O)c2ccccc2)cc1 | inactive |
| COc1ccc(NC(=O)CSc2ccc3ccccc3c2)cc1S(=O)(=O)N1CCCCC1 | inconclusive: 35.5 µM [inhibitor, partial curve, poor fit] |
| c1ccc2[nH]c(NCCCN3CCOCC3)nc2c1 | inconclusive: 16.4 µM [activator, single point] |
| COc1ccc(OC)c(C(=O)c2ccc(C(=O)Nc3ccccc3)cc2)c1 | inconclusive: 0.562 µM [activator, partial curve, poor fit] |
| COc1ccc([N+](=O)[O-])cc1NC(=O)c1ccccc1SC | inconclusive: 1.12 µM [activator, partial curve, poor fit] |
| CC(C)(Oc1ccc(Cl)cc1)C(=O)OCC(=O)N1CCCC1 | inconclusive: 3.16 µM [activator, partial curve, poor fit] |
| O=C(CSc1nnc(NC(=O)c2ccccc2)s1)NCC1CCCO1 (stereo not given) | inactive |
| CS(=O)(=O)N1CCCC(C(=O)NCc2cccs2)C1 (stereo not given) | inactive |
| CCOc1cc(-c2ccc(OC(=O)c3ccc(Cl)cc3)c(OC)c2)cc(=O)c2c(C)oc(C)c12 | inactive |
| C#Cc1cccc(NC(=O)c2ccc3c(c2)C(=O)N(Cc2cccnc2)C3=O)c1 | inconclusive: 1.26 µM [activator, single point] |
| COc1ccccc1OCC(=O)NCCNC(=O)COc1ccccc1OC | inactive |
| CCOC(=O)c1ccccc1-c1csc(NS(=O)(=O)c2ccc(Cl)cc2)n1 | inactive |
| O=C(N/N=C/c1cc(Br)ccc1O)c1cccc(N2CCCC2=O)c1 | active: 23.1 µM |
| O=C(Nc1cccc(F)c1)NC1(C(=O)N2CCC(O)CC2)CCCCC1 | inconclusive: 1.26 µM [activator, partial curve, poor fit] |
